Source: PubChem BioAssay AID1469 (National Center for Advancing Translational Sciences (NCATS), 2008)
In all, about 280,000 compounds went through this assay and about 180 (0.064%) were called active. Inconclusive results, whose numbers are uncertain, are shown with a selection of clear calls. Calls follow the shape of the dose curve; as a rule, active = well fitted inhibition curve with a large enough effect; inconclusive = small, poorly fitted or top-dose-only effect, or effect the other way; inactive = flat fitted curve, though single readings scatter. A potency beside an inconclusive call is a rough fit, not a confirmed value.

Chains of the proteins cited; added tags and fusions are not shown. Lines headed by an entry give the natural chain unless they say otherwise; changes in a name come on top.
UniProt P10828: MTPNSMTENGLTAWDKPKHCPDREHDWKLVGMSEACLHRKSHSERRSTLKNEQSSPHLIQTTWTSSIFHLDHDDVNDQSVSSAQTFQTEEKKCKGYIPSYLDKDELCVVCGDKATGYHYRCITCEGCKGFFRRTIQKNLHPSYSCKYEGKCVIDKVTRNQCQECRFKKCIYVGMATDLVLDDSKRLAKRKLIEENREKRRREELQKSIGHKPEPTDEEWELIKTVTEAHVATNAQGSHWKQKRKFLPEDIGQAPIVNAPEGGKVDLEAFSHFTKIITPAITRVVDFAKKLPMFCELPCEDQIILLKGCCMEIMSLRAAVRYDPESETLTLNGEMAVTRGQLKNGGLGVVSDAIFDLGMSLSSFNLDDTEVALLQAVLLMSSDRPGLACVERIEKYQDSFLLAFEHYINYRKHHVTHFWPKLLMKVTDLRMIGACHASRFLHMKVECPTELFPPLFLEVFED

Target: Thyroid hormone receptor beta (Homo sapiens) (UniProt P10828)
Test: qHTS for Inhibitors of the Interaction of Thyroid Hormone Receptor and Steroid Receptor Coregulator 2; also: nearly all actives have a fitted effect of over 50% in size;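 as to activity change, negative = inhibition: plate controls were bound peptide for no effect and peptide without receptor for full effect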
Settings: TRbeta-SRC2 peptide binding, fluorescence polarization, receptor liganded with 1 µM T3; series mostly up to 106 µM; activity change, negative = inhibition: at the top concentration
Outline: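 Human TRb ligand-binding domain (0.6 uM) is mixed with 20 nM Texas Red SRC2 peptide and 1 uM T3; after compound addition and 5 hr at ambient temperature, polarization is measured and normalized to unbound and bound controls.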
Potency is read from the fitted curve at half-maximal effect.

SMILES	Potency	activity change, negative = inhibition
Nn1c(SCc2nc3ccccc3[nH]2)nnc1-c1ccccc1	inconclusive: 0.0501 µM [inhibitor, full curve]	–
CCOC(=O)c1c(NC(=O)/C=C/C(=O)O)sc(C)c1-c1ccc(C)c(C)c1	inconclusive: 12.6 µM [inhibitor, full curve]	–
CN(C)c1ccc(NC(=O)COC(=O)Cn2nnc3ccccc32)cc1	inconclusive: 70.8 µM [inhibitor, partial curve, poor fit]	–
CCCCn1c(NS(=O)(=O)c2ccc(C)cc2)c(S(=O)(=O)c2ccccc2)c2nc3ccccc3nc21	inconclusive: 35.5 µM [inhibitor, partial curve]	–
C/C(=N\NC(=O)c1ccncc1)c1cc2ccccc2oc1=O	–	inactive: 9.35%
Nc1c(N2CCCC2)cc(Cl)c2nonc12	inconclusive: 31.6 µM [inhibitor, partial curve]	–
Cc1ccccc1N=C/C=C1\N(C)c2ccccc2C1(C)C	inconclusive: 31.6 µM [activator, partial curve]	–
Cc1ccc2cc(CCNC(=O)C(=O)c3c[nH]c4ccccc34)c(=O)[nH]c2c1	inconclusive: 70.8 µM [inhibitor, single point]	–
CC(=O)c1cc(F)c(N2CCN(c3ccc([N+](=O)[O-])cc3F)CC2)cc1C	inconclusive: 44.7 µM [inhibitor, partial curve, poor fit]	–
Cc1occc1C(=O)NCCc1cccc(Cl)c1	inconclusive: 1.58 µM [inhibitor, full curve, poor fit]	–
Cc1ccc(-c2csc(N3N=C(c4ccccc4)/C(=C\c4ccc(N(C)C)cc4)C3=O)n2)cc1	inconclusive: 56.2 µM [activator, partial curve, poor fit]	–
CC(C)(C)c1cc(CN2CCN(CCO)CC2)cc(C(C)(C)C)c1O	inconclusive: 20 µM [inhibitor, single point]	–
COc1ccc2c3c(cccc13)N(C)N=C2C	–	inactive: -6.21%
CC(NC(=O)Nc1ccc(O)cc1)(C(F)(F)F)C(F)(F)F	active: 35.5 µM	–
FC(F)(F)c1nc2cc3nc4ccccc4[nH]c3cc2n1	inconclusive: 22.4 µM [inhibitor, single point]	–
COc1cc(OC)c(NS(=O)(=O)c2c(C)nc3sc(C)cn3c2=O)cc1Cl	–	inactive: 3.57%
COc1cc(C2C(C(N)=O)=C(C)Nc3nc(CCCO)nn32)cc(OC)c1OC (configuration not stated)	–	inactive: 0.172%
COC(=O)C1=C(C)N2C(=O)CSC2=NC1c1ccc2c(c1)OCO2 (configuration not stated)	inconclusive: 39.8 µM [activator, partial curve]	–
Cc1ccc(Cl)cc1N1CCN(C(=O)c2cc(S(=O)(=O)N3CCCC3)c[nH]2)CC1	–	inactive: 1.58%
COc1ccc2c(c1)C=CC1(O2)N(CCO)c2ccccc2C1(C)C (configuration not stated)	inconclusive: 44.7 µM [activator, partial curve]	–
CCN(CCO)c1ccc(NC(=S)Nc2cccc(S(=O)(=O)N(C)C)c2)cc1	inconclusive: 70.8 µM [inhibitor, single point]	–
CCCCn1c(NC(=O)c2ccc(Br)o2)c(S(=O)(=O)c2ccccc2)c2nc3ccccc3nc21	inconclusive: 7.94 µM [inhibitor, full curve, poor fit]	–
CCOc1ccc(NC(=O)C(=O)NCC2CCCN2CC)cc1 (configuration not stated)	inconclusive: 79.4 µM [inhibitor, partial curve]	–

SMILES	Potency	activity change, negative = inhibition
Cc1ccc(S(=O)(=O)N2C(=O)/C(=C3\SC(=S)NC3=O)c3ccccc32)cc1	–	inactive: 4.4%
CCOC(=O)c1c(NC(=O)/C=C\C(=O)O)sc(C)c1-c1ccccc1	inconclusive: 31.6 µM [inhibitor, partial curve]	–
Cc1cnc(C(=O)Nc2cc(S(=O)(=O)N3CCOCC3)ccc2N2CCN(C)CC2)cn1	–	inactive: -0.383%
COc1ccc(-c2nnc(Nc3ccc(CC(N)=O)cc3)c3ccccc23)cc1	inconclusive: 2.51 µM [inhibitor, partial curve]	–
COc1cc(NC(=S)NC2CC2)c(OC)cc1Cl	–	inactive: -1.92%
O=C1c2ccccc2-c2onc3ccc(NCCCn4ccnc4)c1c23	active: 15.8 µM	–
CCOC(=O)C(=CNc1cc(C)nn1-c1ccc(Cl)cc1)C(=O)OCC	–	inactive: -6.82%
COC(=O)c1ccc(=O)c2nc3/c(=C/O)c(O)cc(=O)c3[nH]c12	inconclusive: 20 µM [activator, full curve]	–
Nc1cc(C(=O)O)ccc1Nc1ccccc1	inconclusive: 44.7 µM [inhibitor, partial curve]	–
Cc1ccc(-n2nc(C)c3c(C(=O)NCc4ccc(F)cc4)cc(C)nc32)cc1	–	inactive: 7.08%
CN(C)c1ccccc1C(=O)N1CCCC(C(=O)c2ccc3ccccc3c2)C1 (configuration not stated)	–	inactive: 4.93%
O=C(CN1CCN(Cc2ccc(Cl)cc2)CC1)N/N=C/c1ccncc1	inconclusive: 79.4 µM [activator, single point]	–
CCC(C)NC(=O)COC(=O)c1csc2c1CCCC2 (configuration not stated)	inconclusive: 35.5 µM [inhibitor, partial curve]	–
Cc1cc(N)ccc1N1CCCC1	active: 39.8 µM	–
COc1ccc(-n2c(SCC(=O)N3CCCCC3C)nnc2-c2cccnc2)cc1 (configuration not stated)	inconclusive: 100 µM [inhibitor, partial curve, poor fit]	–
C=CCNC(=O)/C(C#N)=C/c1c(C)nn(-c2ccc(Cl)cc2)c1Cl	inconclusive: 35.5 µM [inhibitor, partial curve]	–
O=[N+]([O-])c1c(NCCCO)cc(Sc2ccc(Cl)cc2)c2nonc12	–	inactive: -8.02%
CCn1c(C)nc2cc(C(=O)NNC(=O)CCC3CCCCC3)ccc21	inconclusive: 5.01 µM [inhibitor, partial curve]	–
O=[N+]([O-])c1ccc(/C=C/C2=NN(c3ccccc3)C(c3ccco3)C2)o1 (configuration not stated)	inconclusive: 11.2 µM [activator, partial curve]	–
Cc1nn(C)c2c1c(C(F)(F)F)cc(=O)n2CC(=O)Nc1ccc(F)cc1F	inconclusive: 2.51 µM [inhibitor, full curve, poor fit]	–
CCn1c(Cn2nnc(-c3ccccc3)n2)nnc1SCC(=O)Nc1ccc(C(C)=O)cc1	inconclusive: 44.7 µM [inhibitor, partial curve]	–
O=C(c1cc(C(=O)c2ccco2)cc(C(=O)c2ccco2)c1)c1ccco1	inconclusive: 56.2 µM [activator, partial curve, poor fit]	–
C=CCNC(=S)N/N=C/c1ccc(OCc2ccccc2)cc1	inconclusive: 44.7 µM [inhibitor, partial curve]	–

Fetched one by one from the entries so far, 3 records:
SMILES	Potency	activity change, negative = inhibition
COc1cc(NC(=S)NC2CC2)c(OC)cc1Cl	–	inactive: -1.92%
CN(C)c1ccccc1C(=O)N1CCCC(C(=O)c2ccc3ccccc3c2)C1 (configuration not stated)	–	inactive: 4.93%
Cc1ccc2cc(CCNC(=O)C(=O)c3c[nH]c4ccccc34)c(=O)[nH]c2c1	inconclusive: 70.8 µM [inhibitor, single point]	–

(next part)

SMILES	Potency	activity change, negative = inhibition
COc1ccccc1CNC(=O)/C=C/c1cc2c(cc1Br)OCO2	inconclusive: 39.8 µM [inhibitor, partial curve, poor fit]	–
CCC1(CC)C(=O)C2=C3C1[C@H](C(=O)OC)CC(C(=O)OC)C[C@H]3n1c(=O)n(-c3ccccc3)c(=O)n1[C@H]2C (some centres not stated)	inconclusive: 20 µM [activator, full curve]	–
Oc1ccc(N=Cc2c(O)ccc3ccccc23)cc1	inconclusive: 39.8 µM [inhibitor, partial curve]	–
CN1/C(=C\C=C2/SC(=S)N(CC(=O)O)C2=O)C(C)(C)c2ccccc21	inconclusive: 14.1 µM [activator, full curve]	–
CC1=NN(c2ccccc2)C(=O)/C1=C/c1cc2cc(C)ccc2nc1N1CCCCC1	inconclusive: 7.94 µM [inhibitor, full curve]	–
Cc1cc(C)c(Nc2cc(S(=O)(=O)O)c(N)c3c2C(=O)c2ccccc2C3=O)c(C)c1	active: 44.7 µM	–
Cc1ccc(-n2nc(C)c3c(C)cc(=O)n(CC(=O)NCc4ccc(OC(C)C)cc4)c32)cc1	inconclusive: 0.126 µM [inhibitor, full curve, poor fit]	–
O=C(COC(=O)c1ccc(O)cc1)Nc1cccc(S(=O)(=O)NC2=NCCCCC2)c1	–	inactive: 2.6%
CCCCC[C@H](O)/C=C/[C@@H]1[C@@H](CC(=O)CCCCC(=O)O)[C@@H](O)C[C@H]1O	inactive	–
Cc1cc(C)cc(NC(=O)C(=O)NCCc2c[nH]c3ccccc23)c1	–	inactive: 2.21%
Cc1ccc(CN(Cc2ccco2)C(=O)COc2ccc(Cl)cc2Cl)cc1	inconclusive: 0.0003 µM [activator]	–
CCN1c2ccccc2N(C)C1(C)c1ccccc1 (configuration not stated)	inconclusive: 39.8 µM [inhibitor, partial curve]	–
O=C(c1ccccc1Cl)N1CCN(CCc2ccccn2)CC1	–	inactive: 4.08%
CSC1=NSC2=NC(=O)/C(=C/c3coc4ccccc4c3=O)C(=N)N12	inconclusive: 28.2 µM [activator, partial curve]	–
[O-]/C(=C(\C(=S)Nc1ccc(SC(F)F)cc1)[n+]1cccc(CO)c1)c1ccc(Cl)s1	–	inactive: -4.57%
CCOC(=O)c1c(/N=C/c2cc(C)ccc2O)sc2c1CCC2	inconclusive: 0.282 µM [inhibitor, full curve, poor fit]	–
O=C(O)/C=C\C(=O)Nc1ccc(N2CCN(c3ccc(Cl)c(Cl)c3)CC2)cc1	inconclusive: 44.7 µM [inhibitor, partial curve]	–
COc1ccc(OC)c2[nH]c(=O)c(CCNC(=O)c3ccc(S(=O)(=O)N4CCCCC4)cc3)cc12	–	inactive: -7.69%
Cc1ccc(C=C2C(=O)c3ccccc3C2=O)s1	inconclusive: 35.5 µM [activator, partial curve]	–
CCOc1ccccc1NC(=O)c1c(NCc2sccc2C)sc2c1CCC(C)C2 (configuration not stated)	inconclusive: 89.1 µM [inhibitor, partial curve]	–
CCCOc1ccc(C2C(C(=O)OC)=CN(CCOC)C=C2C(=O)OC)cc1	inconclusive: 79.4 µM [inhibitor, single point]	–
